Data as given in PubChem BioAssay AID1259307 (Sanger Institute, 2017)
Shown is one part, drawn at random, of 794 reagents. 15 of all reagents (1.9%) count as active. 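Calls reflect lethality without any drug; synergy scores did not enter the calls.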 Viability is capped at 1. Further read-outs or replicates are left out here. Reagent sequences are not shown. Not given: the amount of reagent, the time to read-out.

Test: 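Screen of kinase gene silencing for colorectal cancer cell killing and drug cooperation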 (primary screen)
System: SW620 colorectal cancer cells
Knock-down reagent: siRNA pool against human genes
Treatment: anchor drugs BYL719 at 1 µM, cetuximab at 5 µg/ml or trametinib at 10 nM, each beside a DMSO vehicle arm
Measurement: 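Per-well viability versus non-targeting control pool, replicate-averaged, robust z-score from controls; synergy scores for BYL719 1 µM, cetuximab 5 µg/ml, trametinib 10 nM against DMSO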
Direction: viability robust z-score, no drug and viability vs control, no drug: higher = more viable cells; synergy score with BYL719: higher = stronger synthetic lethality with the drug
Rule for the call: 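Essential when the viability robust z-score without drug is under -3; synergy scores are ignored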
Meaning of the calls: active = essential (lethal alone); inactive = no change alone

| gene knocked down | viability robust z-score, no drug | viability vs control, no drug | synergy score with BYL719 | outcome |
| --- | --- | --- | --- | --- |
| MAGI1 | -0.222 | 0.912 | -0.00506 | inactive |
| PRKD2 (protein kinase D2) | 0.387 | 0.968 | -0.0659 | inactive |
| AXIN2 (axin 2) | 0.628 | 0.99 | -0.013 | inactive |
| ADPGK (ADP dependent glucokinase) | -2.68 | 0.685 | -0.266 | inactive |
| SRP72 (signal recognition particle 72) | 0.146 | 0.946 | -0.118 | inactive |
| PAK4 (p21 (RAC1) activated kinase 4) | 0.736 | 1 | -0.0557 | inactive |
| STRADB (STE20 related adaptor beta) | 0.736 | 1 | -0.0212 | inactive |
| TNK1 (tyrosine kinase non receptor 1) | 0.531 | 0.981 | 0.0699 | inactive |
| CAMKK2 (calcium/calmodulin dependent protein kinase kinase 2) | 0.736 | 1 | -0.0919 | inactive |
| CDK2 (cyclin dependent kinase 2) | 0.736 | 1 | -0.0139 | inactive |
| PANK4 (pantothenate kinase 4 (inactive)) | -0.687 | 0.869 | -0.0259 | inactive |
| PRKCI (protein kinase C iota) | -0.0734 | 0.925 | -0.0172 | inactive |
| NEK9 (NIMA related kinase 9) | 0.736 | 1 | 0.0101 | inactive |
| PRKACG (protein kinase cAMP-activated catalytic subunit gamma) | 0.736 | 1 | -0.0919 | inactive |
| ATRX (ATRX chromatin remodeler) | 0.736 | 1 | -0.0917 | inactive |
| MERTK (MER proto-oncogene, tyrosine kinase) | -1.8 | 0.766 | -0.0501 | inactive |
| MAP2K5 (mitogen-activated protein kinase kinase 5) | 0.736 | 1 | -0.0757 | inactive |
| SRPK2 (SRSF protein kinase 2) | 0.736 | 1 | -0.0379 | inactive |
| STRADA (STE20 related adaptor alpha) | -0.406 | 0.895 | -0.132 | inactive |
| STK31 (serine/threonine kinase 31) | 0.736 | 1 | -0.00064 | inactive |
| AURKB (aurora kinase B) | -0.873 | 0.852 | 0.108 | inactive |
| CKS1B (CDC28 protein kinase regulatory subunit 1B) | -1.26 | 0.815 | -0.0845 | inactive |
| ERN1 (endoplasmic reticulum to nucleus signaling 1) | 0.422 | 0.971 | 0.048 | inactive |
| CSNK1D (casein kinase 1 delta) | 0.736 | 1 | -0.0221 | inactive |
| CDK20 (cyclin dependent kinase 20) | -0.4 | 0.895 | 0.0118 | inactive |
| SIK1 (salt inducible kinase 1) | -0.147 | 0.919 | -0.0358 | inactive |
| TTBK1 (tau tubulin kinase 1) | -0.4 | 0.895 | -0.044 | inactive |
| CDK9 (cyclin dependent kinase 9) | 0.736 | 1 | 0.0755 | inactive |
| ALPK2 (alpha kinase 2) | 0.356 | 0.965 | -0.0184 | inactive |
| PFKL (phosphofructokinase, liver type) | -0.278 | 0.906 | 0.00597 | inactive |
| PRKCE (protein kinase C epsilon) | -1.05 | 0.836 | -0.168 | inactive |
| TBX3 (T-box transcription factor 3) | 0.617 | 0.989 | -0.102 | inactive |
| LMTK3 (lemur tail kinase 3) | 0.174 | 0.948 | 0.108 | inactive |
| RPS6KA5 (ribosomal protein S6 kinase A5) | -0.971 | 0.842 | 0.0342 | inactive |
| IP6K3 (inositol hexakisphosphate kinase 3) | -0.579 | 0.879 | -0.0244 | inactive |
| GUCY2D (guanylate cyclase 2D, retinal) | -4.51 | 0.516 | 0.0281 | active |
| CDK19 (cyclin dependent kinase 19) | 0.736 | 1 | -0.0307 | inactive |
| PDPK1 (3-phosphoinositide dependent protein kinase 1) | -1.33 | 0.809 | 0.0335 | inactive |
| SOS2 (SOS Ras/Rho guanine nucleotide exchange factor 2) | 0.123 | 0.943 | -0.0589 | inactive |
| KSR1 (kinase suppressor of ras 1) | -0.41 | 0.894 | 0.0106 | inactive |
| BCKDK (branched chain keto acid dehydrogenase kinase) | 0.736 | 1 | -0.0919 | inactive |
| STK17B (serine/threonine kinase 17b) | 0.153 | 0.946 | 0.0173 | inactive |
| PRKCSH (PRKCSH beta subunit of glucosidase II) | 0.736 | 1 | 0.0215 | inactive |
| BMX (BMX non-receptor tyrosine kinase) | 0.736 | 1 | -0.0919 | inactive |
| MAP3K15 (mitogen-activated protein kinase kinase kinase 15) | 0.736 | 1 | -0.0588 | inactive |
| CDADC1 (cytidine and dCMP deaminase domain containing 1) | -0.0252 | 0.93 | -0.135 | inactive |
| CALM2 (calmodulin 2) | 0.736 | 1 | 0.00438 | inactive |
| PRKAR1B (protein kinase cAMP-dependent type I regulatory subunit beta) | -0.496 | 0.886 | -0.00791 | inactive |
| TNNI3K (TNNI3 interacting kinase) | -1.18 | 0.823 | 0.0587 | inactive |
| RYK (receptor like tyrosine kinase) | 0.0298 | 0.935 | -0.103 | inactive |
| PXK (PX domain containing serine/threonine kinase like) | 0.373 | 0.967 | 0.0441 | inactive |
| LATS1 (large tumor suppressor kinase 1) | 0.549 | 0.983 | -0.0912 | inactive |
| BUB1B (BUB1 mitotic checkpoint serine/threonine kinase B) | -1.91 | 0.756 | -0.0291 | inactive |
| NME3 (NME/NM23 nucleoside diphosphate kinase 3) | 0.33 | 0.963 | -0.0751 | inactive |
| SRGAP3 (SLIT-ROBO Rho GTPase activating protein 3) | 0.437 | 0.972 | -0.0385 | inactive |
| NTRK1 (neurotrophic receptor tyrosine kinase 1) | -1.38 | 0.804 | -0.131 | inactive |
| BRD2 (bromodomain containing 2) | 0.736 | 1 | -0.0256 | inactive |
| GUCY2F (guanylate cyclase 2F, retinal) | 0.736 | 1 | -0.0158 | inactive |
| PAK2 (p21 (RAC1) activated kinase 2) | 0.337 | 0.963 | -0.0055 | inactive |
| DAPK3 (death associated protein kinase 3) | 0.238 | 0.954 | 0.0153 | inactive |
| HUNK (hormonally up-regulated Neu-associated kinase) | -2.02 | 0.746 | -0.00908 | inactive |
| CUL1 (cullin 1) | -0.514 | 0.885 | -0.188 | inactive |
| NF1 (neurofibromin 1) | 0.736 | 1 | -0.0495 | inactive |

Active calls, among the entries above:
| gene knocked down | viability robust z-score, no drug | viability vs control, no drug | synergy score with BYL719 | outcome |
| --- | --- | --- | --- | --- |
| GUCY2D (guanylate cyclase 2D, retinal) | -4.51 | 0.516 | 0.0281 | active |
